The target in test [1] is T1, Gal4DBD fusion of the Sir2 NR-box peptide (S. cerevisiae).
T1 sequence: IYYLIKLLGFE
Nature of the test: two-hybrid; mammalian two-hybrid in HEK293 cells: Gal4DBD fusions with VP16-ERα or VP16-ERβ and the reporter pFR-Luc (5x Gal4-luc); DMSO or 100 nM E2; Gal4DBD (pM) as reference.

The chains behind the UniProt entries cited, without tags or fusion partners. Where a name states a change or a piece, a line headed by the entry shows the natural chain unless it says otherwise. A line that says so, or that is headed by a name, gives the form on record, which may keep a tag or linker. Residues count along the entry.
UniProt P06700: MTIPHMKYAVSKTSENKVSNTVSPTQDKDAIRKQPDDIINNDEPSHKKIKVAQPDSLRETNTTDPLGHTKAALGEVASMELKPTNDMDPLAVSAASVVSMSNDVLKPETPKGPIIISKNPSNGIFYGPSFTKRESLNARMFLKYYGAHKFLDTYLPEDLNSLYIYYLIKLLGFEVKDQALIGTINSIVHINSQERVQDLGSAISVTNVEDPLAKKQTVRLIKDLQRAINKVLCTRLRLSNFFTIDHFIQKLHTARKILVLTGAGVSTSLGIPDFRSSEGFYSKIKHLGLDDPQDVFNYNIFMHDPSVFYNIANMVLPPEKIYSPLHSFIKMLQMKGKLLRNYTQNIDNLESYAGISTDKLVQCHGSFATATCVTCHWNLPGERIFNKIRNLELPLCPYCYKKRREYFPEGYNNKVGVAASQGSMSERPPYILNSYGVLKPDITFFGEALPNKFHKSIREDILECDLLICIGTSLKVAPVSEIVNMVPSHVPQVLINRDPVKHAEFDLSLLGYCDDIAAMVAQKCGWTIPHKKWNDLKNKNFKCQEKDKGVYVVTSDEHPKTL
UniProt Q96EB6: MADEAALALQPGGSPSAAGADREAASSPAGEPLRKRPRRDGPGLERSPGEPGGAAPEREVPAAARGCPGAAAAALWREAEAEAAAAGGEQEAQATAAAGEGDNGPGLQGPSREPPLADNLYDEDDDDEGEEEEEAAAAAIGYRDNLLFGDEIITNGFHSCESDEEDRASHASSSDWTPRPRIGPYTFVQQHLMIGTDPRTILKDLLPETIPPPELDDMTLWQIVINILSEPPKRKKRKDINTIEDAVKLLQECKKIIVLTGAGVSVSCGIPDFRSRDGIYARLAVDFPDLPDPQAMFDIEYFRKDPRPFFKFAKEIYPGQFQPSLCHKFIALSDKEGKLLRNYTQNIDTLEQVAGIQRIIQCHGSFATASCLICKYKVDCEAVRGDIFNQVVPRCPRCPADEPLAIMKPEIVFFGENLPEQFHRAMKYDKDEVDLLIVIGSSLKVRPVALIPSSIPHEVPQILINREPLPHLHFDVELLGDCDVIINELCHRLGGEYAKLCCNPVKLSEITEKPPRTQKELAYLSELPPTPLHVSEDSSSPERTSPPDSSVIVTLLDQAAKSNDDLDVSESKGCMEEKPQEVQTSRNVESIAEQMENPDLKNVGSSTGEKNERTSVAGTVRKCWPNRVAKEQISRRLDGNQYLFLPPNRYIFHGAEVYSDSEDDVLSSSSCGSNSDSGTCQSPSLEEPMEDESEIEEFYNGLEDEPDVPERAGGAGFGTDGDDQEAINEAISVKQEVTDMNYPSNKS
GST-SIRT1 (Wt): residues 82-747 of Q96EB6
GST-STACs-AD wild-type: residues 82-243 of Q96EB6
GST-STACs-ADΔNRB (Q96EB6, form named): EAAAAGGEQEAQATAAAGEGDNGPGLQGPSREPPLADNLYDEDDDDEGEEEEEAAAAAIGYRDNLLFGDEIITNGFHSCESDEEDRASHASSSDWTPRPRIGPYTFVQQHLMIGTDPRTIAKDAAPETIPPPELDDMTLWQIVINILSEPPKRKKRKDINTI
GST-SIRT1ΔNRB (Q96EB6, form named): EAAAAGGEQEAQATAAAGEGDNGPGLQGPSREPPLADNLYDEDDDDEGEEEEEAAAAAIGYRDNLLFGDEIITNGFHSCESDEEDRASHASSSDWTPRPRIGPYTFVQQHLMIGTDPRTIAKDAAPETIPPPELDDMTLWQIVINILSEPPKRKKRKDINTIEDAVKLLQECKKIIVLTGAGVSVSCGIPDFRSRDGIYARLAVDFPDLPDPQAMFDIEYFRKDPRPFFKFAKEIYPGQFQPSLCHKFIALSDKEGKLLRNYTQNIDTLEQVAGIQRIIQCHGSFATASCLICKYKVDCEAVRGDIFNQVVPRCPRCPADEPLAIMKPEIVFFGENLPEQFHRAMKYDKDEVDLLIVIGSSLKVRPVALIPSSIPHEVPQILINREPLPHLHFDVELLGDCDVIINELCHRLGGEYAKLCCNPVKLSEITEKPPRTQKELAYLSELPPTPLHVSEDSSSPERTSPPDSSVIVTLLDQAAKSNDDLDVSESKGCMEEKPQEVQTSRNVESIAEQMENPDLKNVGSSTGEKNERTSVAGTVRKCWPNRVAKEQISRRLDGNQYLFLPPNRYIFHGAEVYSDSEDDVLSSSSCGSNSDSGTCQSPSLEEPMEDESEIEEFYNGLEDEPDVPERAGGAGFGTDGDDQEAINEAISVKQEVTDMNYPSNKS
UniProt Q92731: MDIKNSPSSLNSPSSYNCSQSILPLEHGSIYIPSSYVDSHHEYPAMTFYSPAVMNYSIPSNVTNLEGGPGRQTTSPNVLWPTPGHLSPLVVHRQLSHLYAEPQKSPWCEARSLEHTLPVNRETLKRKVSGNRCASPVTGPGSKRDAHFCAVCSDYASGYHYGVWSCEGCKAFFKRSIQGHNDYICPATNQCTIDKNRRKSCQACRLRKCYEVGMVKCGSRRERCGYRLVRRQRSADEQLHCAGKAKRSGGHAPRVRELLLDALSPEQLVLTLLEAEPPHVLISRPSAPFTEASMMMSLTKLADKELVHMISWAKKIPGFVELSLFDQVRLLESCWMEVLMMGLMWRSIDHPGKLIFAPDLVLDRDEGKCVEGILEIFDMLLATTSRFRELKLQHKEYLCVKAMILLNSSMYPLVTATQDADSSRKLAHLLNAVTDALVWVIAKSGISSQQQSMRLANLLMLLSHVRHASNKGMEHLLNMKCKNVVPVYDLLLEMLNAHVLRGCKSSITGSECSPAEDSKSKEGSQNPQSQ
UniProt P03372: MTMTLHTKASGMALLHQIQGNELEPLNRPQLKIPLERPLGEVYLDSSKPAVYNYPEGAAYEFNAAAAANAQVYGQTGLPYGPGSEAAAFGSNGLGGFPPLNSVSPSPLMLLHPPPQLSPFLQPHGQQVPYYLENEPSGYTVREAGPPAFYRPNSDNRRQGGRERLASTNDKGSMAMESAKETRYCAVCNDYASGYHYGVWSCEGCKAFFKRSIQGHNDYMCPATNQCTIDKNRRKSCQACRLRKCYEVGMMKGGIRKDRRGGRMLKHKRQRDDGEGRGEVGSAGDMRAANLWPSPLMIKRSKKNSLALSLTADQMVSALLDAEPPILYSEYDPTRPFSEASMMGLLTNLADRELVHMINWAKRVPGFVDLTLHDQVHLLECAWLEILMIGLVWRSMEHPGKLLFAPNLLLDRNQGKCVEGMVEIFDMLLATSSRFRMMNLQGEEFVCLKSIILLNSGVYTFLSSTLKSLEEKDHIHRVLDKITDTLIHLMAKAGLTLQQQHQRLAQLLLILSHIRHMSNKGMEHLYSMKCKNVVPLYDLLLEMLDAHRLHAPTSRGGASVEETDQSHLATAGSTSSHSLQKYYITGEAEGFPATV

The next test has as its target T2, Gal4DBD-PGC-1α (UniProt O70343).
T2 sequence: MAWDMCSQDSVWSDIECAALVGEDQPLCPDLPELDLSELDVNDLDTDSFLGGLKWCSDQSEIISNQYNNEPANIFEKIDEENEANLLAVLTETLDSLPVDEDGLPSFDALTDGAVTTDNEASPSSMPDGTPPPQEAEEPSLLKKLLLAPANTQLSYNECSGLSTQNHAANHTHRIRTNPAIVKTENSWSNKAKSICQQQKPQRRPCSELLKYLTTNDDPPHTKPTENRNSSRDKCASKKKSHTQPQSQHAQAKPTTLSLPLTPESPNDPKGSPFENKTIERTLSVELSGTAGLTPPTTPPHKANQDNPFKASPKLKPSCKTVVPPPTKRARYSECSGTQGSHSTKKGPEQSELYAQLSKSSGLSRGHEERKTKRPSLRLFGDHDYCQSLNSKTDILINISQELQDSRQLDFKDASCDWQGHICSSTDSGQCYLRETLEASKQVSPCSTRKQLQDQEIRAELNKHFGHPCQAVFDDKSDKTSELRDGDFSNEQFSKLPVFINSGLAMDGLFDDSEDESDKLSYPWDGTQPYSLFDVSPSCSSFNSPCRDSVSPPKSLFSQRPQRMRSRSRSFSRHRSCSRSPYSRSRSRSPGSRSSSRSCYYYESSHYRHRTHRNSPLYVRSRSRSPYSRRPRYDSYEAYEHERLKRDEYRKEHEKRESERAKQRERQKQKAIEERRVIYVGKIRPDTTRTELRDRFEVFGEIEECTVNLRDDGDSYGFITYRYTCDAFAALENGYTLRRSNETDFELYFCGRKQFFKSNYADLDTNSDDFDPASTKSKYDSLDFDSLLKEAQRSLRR
The test is described as above.

The target in test [2] is T3, Gal4DBD fusion of the dSir2 NR-box peptide (Drosophila (D. melanogaster)).
T3 sequence: WDYLAHLLNEP
The test is described as above.

For test [3], the target named is T4, Gal4DBD fusion peptide of the wild-type SIRT1 NR-box (human).
T4 sequence: RTILKDLLPET
Described as above.

The target of test [4] is T5, Gal4DBD fusion of the Sir-2.1 NR-box peptide (C. elegans).
T5 sequence: FAILSDLLERA
The description is as above.

Test [5] deals with T6, Gal4DBD fusion of the NR-box peptide of Sirt1 of N. furzeri (N. furzeri).
T6 sequence: RAILRDLLPET
The description is as above.

The target of test [6] is GST-Sir2 (S. cerevisiae) (UniProt P06700). Nature of the test: pull-down; GST or GST fusions immobilised on glutathione sepharose beads; 5 µl 35S-labelled in vitro translated ERα or ERβ; 20 mM HEPES pH 7.5, 150 mM NaCl, 0.1 mM EDTA, 10% glycerol, 0.05% NP-40; 2 h at 4°C; with DMSO or 1 µM E2; PAGE and autoradiography; only the target purified.
Another test has as its target GST-STACs-ADΔNRB (human) (UniProt Q96EB6). The description is as above.
The target of another test is GST-SIRT1ΔNRB (human) (UniProt Q96EB6). Described as above.
Test [7] has as its target GST-STACs-AD wild-type (human) (UniProt Q96EB6). The test is described as above.
Test [8] deals with GST-SIRT1 (Wt) (human) (UniProt Q96EB6). The test is described as above.
Test [9] deals with T7, GST-Sir-2.1 (C. elegans) (UniProt Q21921).
T7 sequence: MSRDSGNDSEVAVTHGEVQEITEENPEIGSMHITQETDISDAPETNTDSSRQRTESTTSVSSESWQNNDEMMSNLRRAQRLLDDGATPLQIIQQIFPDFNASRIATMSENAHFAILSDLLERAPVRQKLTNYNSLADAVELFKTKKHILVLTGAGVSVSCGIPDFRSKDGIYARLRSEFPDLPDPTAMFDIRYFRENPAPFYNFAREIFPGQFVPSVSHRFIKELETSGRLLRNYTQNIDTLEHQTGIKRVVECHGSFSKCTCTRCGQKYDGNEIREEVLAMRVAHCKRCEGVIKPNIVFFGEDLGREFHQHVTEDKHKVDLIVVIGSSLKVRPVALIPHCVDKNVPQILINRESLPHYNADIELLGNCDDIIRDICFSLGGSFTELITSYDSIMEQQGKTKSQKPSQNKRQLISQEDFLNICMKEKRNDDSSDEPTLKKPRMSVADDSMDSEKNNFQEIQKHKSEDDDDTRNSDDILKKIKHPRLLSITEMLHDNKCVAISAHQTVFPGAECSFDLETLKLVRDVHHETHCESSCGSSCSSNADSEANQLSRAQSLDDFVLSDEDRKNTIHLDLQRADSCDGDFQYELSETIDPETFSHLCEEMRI
The description is as above.

In test [10] the target is GST-Sir2 (S. cerevisiae) (UniProt P06700). Nature of the test: pull-down; GST or GST fusions of Sir-2.1, Sir2 and SIRT1 (Wt only) incubated with in vitro expressed DAF-12 with DMSO or 1 µM Δ7-dafachronic acid; PAGE and autoradiography; only the target purified.
Test [11] concerns the target GST-SIRT1 (Wt) (human) (UniProt Q96EB6). Described as above.
Test [12] deals with T7, GST-Sir-2.1 (C. elegans). The description is as above.

For five molecules, binding results are on record in publication PMC6904774.

Results are given in words; binding and its absence hold for the method and conditions named. For part of these data: Binding seen in cells or lysates may run through a third protein. Some results given as binding are weak or reduced against the parent protein; the word gives no strength. For part of these data: Tags and fused reporters may be left off the sequences shown.

For “VP16-ERβ (from UniProt Q92731 1-530) (receptor)”, the binding entry (in [1]; in the test with Gal4DBD-PGC-1α; in test [2]; in test [3]; in [4]; in [5]) was “binds” each time.
Consider “in vitro translated human ERα (from UniProt P03372 1-595) (receptor)”, for which the binding result with GST-Sir2 (S. cerevisiae) [6] is on record as “binds”; with GST-STACs-ADΔNRB (human), “binds weakly”; with GST-SIRT1ΔNRB (human), “binds”; in test [7], “binds”; in the test with GST-SIRT1 (Wt) (human) [8], “binds”; in the test with GST-Sir-2.1 (C. elegans) [9], “binds”.
As to “in vitro translated human ERβ (from UniProt Q92731 1-530) (receptor)”, the binding entry with GST-Sir2 (S. cerevisiae) [6] is “binds”; with GST-STACs-ADΔNRB (human), “binds weakly”; in the test with GST-SIRT1ΔNRB (human), “binds”; in test [7], “binds”; with GST-SIRT1 (Wt) (human) [8] it was “binds”; in the test with GST-Sir-2.1 (C. elegans) [9], “binds”.
As for “VP16-ERα (from UniProt P03372 1-595) (receptor)”, the binding entry (in test [1]; with Gal4DBD-PGC-1α; in test [2]; in test [3]; in [4]; in test [5]) was “binds” each time.

B1: in vitro expressed DAF-12 (receptor, UniProt G5EFF5 1-753)
chain: MGTNGGVIAEQSMEIETNENPDKVEEPVVRRKRVTRRRHRRIHSKNNCLTPPNSDDDPQMSTPDDPVIHSPPSIGAAPGMNGYHGSGVKLEESSGACGSPDDGLLDSSEESRRRQKTCRVCGDHATGYNFNVITCESCKAFFRRNALRPKEFKCPYSEDCEINSVSRRFCQKCRLRKCFTVGMKKEWILNEEQLRRRKNSRLNNTGTCNKRSQPGNQQSPQGPNQQPHLSPHHPGVAIYPPQPQRPLTINPMDNQMMHHMQANRPNAMPQLISPPGAQPYPLTSPVGSSASDSPPNRSLTMMHNGEKSPDGYDPNIMAHRAPPPSFNNRPKMDSGQVVLSTEEYKQLLSRIPGAQVPGLMNEEEPINKRAAYNCNGHPMPAETTPPYSAPMSDMSLSRHNSTSSGTEKNHMTHSTVSAIPGNSAQNHFDIASFGMGIVTATGGGDAAEEMYKRMNMFYENCIQSALDSPENQEPKPQEAMIPKEEYMTPTHGFQYQSDPYQVPPAERNINYQLNAAELKALDAVREAFYGMDDPMEQGRQMQSFLKANKTPADIMNIMDVTMRRFVKVAKGVPAFREVSQEGKFSLLKGGMIEMLTVRGVTRYDASTNSFKTPTIKGQNVSVNVDDMFAKLNANAQAQKAKCLEFFGFFDEEIKKNELAVYLVMLAVLFSVRSDPPMNENDVRIVTERHNHFMSLLNRYLESLFGEQARRIFERIPKALGLLNEIARNAGMLFMGTVRSGEAEELPGEFFKIK
modifications: [35S]-methionine labelled
On to B1, for which the binding result in the test with GST-Sir2 (S. cerevisiae) [10], with GST-SIRT1 (Wt) (human) [11] and in the test with GST-Sir-2.1 (C. elegans) [12] was “binds” each time.
